We go through six molecules from article PMC4015341.

Sequences of proteins named here, by UniProt entry; tags and fusion partners are left off. A change or cut given only in a name is not applied to a line headed by its entry.
UniProt Q9LQQ4: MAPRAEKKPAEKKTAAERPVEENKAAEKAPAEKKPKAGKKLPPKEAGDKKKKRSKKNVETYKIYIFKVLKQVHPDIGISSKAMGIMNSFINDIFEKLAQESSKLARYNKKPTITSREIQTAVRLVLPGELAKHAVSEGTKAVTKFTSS

Read-outs that look alike come from different tables or passages of the source. No constants are given. Whether binding was seen depends on the method and setting. For some assays here: Binding seen in cells or lysates may run through a third protein. Some binding calls cover weakened binding; strength is not graded here. Sequences can lack the tags named with a protein.

The target of test [1] is T1, Full length LUH as N-LUC fusion (Arabidopsis thaliana) (UniProt O48847).
T1 sequence: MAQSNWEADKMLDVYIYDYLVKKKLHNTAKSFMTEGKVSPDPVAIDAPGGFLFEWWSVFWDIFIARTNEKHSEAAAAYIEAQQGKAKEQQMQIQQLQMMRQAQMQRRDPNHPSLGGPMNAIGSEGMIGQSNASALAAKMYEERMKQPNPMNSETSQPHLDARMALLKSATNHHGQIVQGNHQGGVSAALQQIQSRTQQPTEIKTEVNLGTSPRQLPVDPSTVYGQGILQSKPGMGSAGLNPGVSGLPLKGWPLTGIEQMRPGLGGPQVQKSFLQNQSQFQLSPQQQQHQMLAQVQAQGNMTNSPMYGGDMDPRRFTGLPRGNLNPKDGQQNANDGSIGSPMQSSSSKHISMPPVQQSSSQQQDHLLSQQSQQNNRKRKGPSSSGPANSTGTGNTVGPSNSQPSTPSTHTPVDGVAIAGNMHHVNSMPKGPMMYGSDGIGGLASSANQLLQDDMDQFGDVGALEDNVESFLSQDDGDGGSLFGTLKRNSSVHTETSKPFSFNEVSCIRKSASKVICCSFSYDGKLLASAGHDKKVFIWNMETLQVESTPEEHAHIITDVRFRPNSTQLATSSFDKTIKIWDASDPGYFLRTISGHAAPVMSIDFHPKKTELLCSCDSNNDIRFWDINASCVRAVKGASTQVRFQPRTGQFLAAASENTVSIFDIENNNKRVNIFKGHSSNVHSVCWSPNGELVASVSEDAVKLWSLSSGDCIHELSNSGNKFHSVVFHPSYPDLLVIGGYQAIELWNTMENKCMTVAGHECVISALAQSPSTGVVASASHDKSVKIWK
Description: split reporter; split luciferase complementation in Arabidopsis protoplasts; 15 ug of each N-LUC and C-LUC fusion plasmid, 5 x 10^4 protoplasts, 16 h in the dark at room temperature; LUC relative to Renilla LUC.

The target of test [2] is T2, LEUNIG_HOMOLOG (LUH) fused with the Gal4 DNA binding domain (Arabidopsis thaliana) (UniProt O48847).
T2 sequence: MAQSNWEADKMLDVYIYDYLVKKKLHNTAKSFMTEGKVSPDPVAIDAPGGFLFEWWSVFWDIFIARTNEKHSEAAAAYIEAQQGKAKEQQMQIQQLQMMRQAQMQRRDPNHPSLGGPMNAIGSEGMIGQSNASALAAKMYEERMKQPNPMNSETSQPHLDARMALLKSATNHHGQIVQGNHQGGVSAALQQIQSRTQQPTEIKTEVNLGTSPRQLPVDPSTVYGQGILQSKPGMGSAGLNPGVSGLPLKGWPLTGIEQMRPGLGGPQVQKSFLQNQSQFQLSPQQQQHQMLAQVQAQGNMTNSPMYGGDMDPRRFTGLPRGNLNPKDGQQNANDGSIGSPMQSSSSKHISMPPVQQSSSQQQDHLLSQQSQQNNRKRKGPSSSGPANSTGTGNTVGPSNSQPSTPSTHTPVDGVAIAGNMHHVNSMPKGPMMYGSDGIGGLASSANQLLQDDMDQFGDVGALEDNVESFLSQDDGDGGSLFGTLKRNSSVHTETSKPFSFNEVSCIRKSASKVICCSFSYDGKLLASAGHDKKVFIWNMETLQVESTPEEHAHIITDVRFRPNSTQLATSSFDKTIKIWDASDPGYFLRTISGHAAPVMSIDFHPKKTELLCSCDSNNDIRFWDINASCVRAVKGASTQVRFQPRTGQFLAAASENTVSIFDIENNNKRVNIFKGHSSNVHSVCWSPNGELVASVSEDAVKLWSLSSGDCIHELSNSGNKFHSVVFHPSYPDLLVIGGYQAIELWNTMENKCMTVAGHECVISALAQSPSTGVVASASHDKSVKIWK
The test can be described thus: two-hybrid; Y2H Gold yeast; bait as Gal4-BD fusion (pGBKT7), prey as Gal4-AD fusion (pGADT7); alpha-galactosidase reporter, blue colour indicates positive interaction.

For test [3], the target named is T2, LEUNIG_HOMOLOG (LUH) fused with the Gal4 DNA binding domain (Arabidopsis thaliana). The test is described as above. The source holds these as a separate data set.
The target in test [4] is T3, LUFS domain of LUH (amino acid residues 1-88) as Gal4 BD fusion (Arabidopsis thaliana) (UniProt O48847).
T3 sequence: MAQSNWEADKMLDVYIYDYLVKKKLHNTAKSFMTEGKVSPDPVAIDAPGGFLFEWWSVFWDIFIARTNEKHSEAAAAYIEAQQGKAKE
The description is as above.

For test [5], the target named is T1, Full length LUH as N-LUC fusion (Arabidopsis thaliana). The test can be described thus: split reporter; split luciferase complementation in Arabidopsis protoplasts; 15 ug of each N-LUC and C-LUC fusion plasmid, 5 x 10^4 protoplasts, 16 h in the dark at room temperature; LUC relative to Renilla LUC. The source holds these as a separate data set.

For “Histone H2B as C-LUC fusion (from UniProt Q9LQQ4 1-148)”, the binding result in test [1] is reported as “binds”.

Take “Histone H2B (AT1G07790) as Gal4 AD fusion (from UniProt Q9LQQ4 1-148)”: the binding result in test [2] is “binds”.

B1: SEUSS-LIKE2 (SLK2) fused with the Gal4 activation domain (protein, UniProt Q94BP0 1-816)
chain: MASSTSGIFFQGDDESQSFINSHLTSSYGNSSNSAPGCGGPTGGYHNLSMVSGDMHNPVMMSVSTPGPSAGASSLVTDANSGLSGGGPHLQRSASINNESYMRLPASPMSFSSNNISISGSSVVDGSTVVQRHDPSVQLGGSSATSLPTSQTNQIPLSMARRASESFFQDPNNLTQARKKPRLDSKQDDALQQQILRQWLQRQDILQQQQQQQQQGQNPQFQILLQQQKLRQQQQYLQSLPPLQRVQLQQQQQVQQQQQLQQQHQQQQQQLQQQGMQMQLTGGPRPYENSVCARRLMQYLYHQRQRPSESSIVYWRKFVTEYFSPRAKKRWCLSHYDNVGHSALGVSPQAATDEWQCDLCGSKSGRGFEATFDVLPRLNEIKFASGVLDELLYLGVPSERRYGSGIMVLEYGKAVQESVYEHIRVVREGHLRIIFSQELKILSWEFCTRRHEELLPRRLVAPQVNQLLQVAEKCQSTIDQSGSDGIHQQDLQANSNMVMAAGRQLAKSLESHSLNDLGFSKRYVRCLQISEVVSSMKDMIDFCRDQKVGPIEALKSYPYRMKAGKPQMQEMEQLAAARGLPPDRNSLNKLMALRNSGINIPMNNMSGQGSLPGSAQAAAFALTNYQSMLMKQNHLNSDLNNTTIQQEPSRNRSASPSYQGTSPLLPGFVHSPSISGVSSHLSPQRQMPSSSYNGSTQQYHQQPPSCSSGNQTLEQQMIHQIWQQMANSNGGSGQQQQSLSGQNMMNCNTNMGRNRTDYVPAAAETPSTSNRFRGIKGLDQSQNLEGIISNTSLNFGNNGVFSNEVDESMGGYSWKS
As to B1, the binding entry in test [3] and in test [4] was “binds” throughout.

B2: SLK2 as C-LUC fusion (protein, UniProt Q94BP0 1-816)
chain: MASSTSGIFFQGDDESQSFINSHLTSSYGNSSNSAPGCGGPTGGYHNLSMVSGDMHNPVMMSVSTPGPSAGASSLVTDANSGLSGGGPHLQRSASINNESYMRLPASPMSFSSNNISISGSSVVDGSTVVQRHDPSVQLGGSSATSLPTSQTNQIPLSMARRASESFFQDPNNLTQARKKPRLDSKQDDALQQQILRQWLQRQDILQQQQQQQQQGQNPQFQILLQQQKLRQQQQYLQSLPPLQRVQLQQQQQVQQQQQLQQQHQQQQQQLQQQGMQMQLTGGPRPYENSVCARRLMQYLYHQRQRPSESSIVYWRKFVTEYFSPRAKKRWCLSHYDNVGHSALGVSPQAATDEWQCDLCGSKSGRGFEATFDVLPRLNEIKFASGVLDELLYLGVPSERRYGSGIMVLEYGKAVQESVYEHIRVVREGHLRIIFSQELKILSWEFCTRRHEELLPRRLVAPQVNQLLQVAEKCQSTIDQSGSDGIHQQDLQANSNMVMAAGRQLAKSLESHSLNDLGFSKRYVRCLQISEVVSSMKDMIDFCRDQKVGPIEALKSYPYRMKAGKPQMQEMEQLAAARGLPPDRNSLNKLMALRNSGINIPMNNMSGQGSLPGSAQAAAFALTNYQSMLMKQNHLNSDLNNTTIQQEPSRNRSASPSYQGTSPLLPGFVHSPSISGVSSHLSPQRQMPSSSYNGSTQQYHQQPPSCSSGNQTLEQQMIHQIWQQMANSNGGSGQQQQSLSGQNMMNCNTNMGRNRTDYVPAAAETPSTSNRFRGIKGLDQSQNLEGIISNTSLNFGNNGVFSNEVDESMGGYSWKS
Consider B2, for which, in test [5], the binding entry is listed as “binds”.

B3: SEUSS-LIKE1 (SLK1) fused with the Gal4 activation domain (protein, UniProt Q0WVM7 1-748)
chain: MNRTVVSGAVESSFSLTDAVGTEALNMQRSSGINNNMRIPTSPMSFSSNSVNIPGSLVLDGSAASMQHLPQQQQQQLLQQQTGQGSVPMRENNYSHVDKKPRLEVKQEDMLQQQILQQLIQRQDPTGRNPQMQALLQQQRLRQHQQMLQSMSPSQRLQLQQQQQLRQQLQQQGTQQIPPNVRPYEVGVCARKLMMYLYHLQQRPAENCITYWRKFVAEYFSPRAKQRLCLSQYESAGHHALGMFPQAAPDMWQCDLCGTKSGKGFEATFDVLARLIEIKFASGIIDELLYLDHPRENRFPNGLMMLEYRKAVQETVHEQFRVVREGHLRIIFSQDLKILSWEFCARRHEELLLRRLIAPQVNQLLQVAQKCQSTISESGSEGVSQQDLQSNSNMVLGAGRQLAKFMELQSLNDLGYPKRYIRTLQISEVVKSMKDLMNFTGEQKIGPIEGLKRLLEQTVTVKLQKQKMQEMEQFGNNGAINGPVQAQMVLTSGTMNGSTGNNTNNHHQIVGRGAMSGPAEGQMVISSGTVSGATANNNSNNHNQIVGRGAMNGSAQAAAALTNYQSMLMRQNAMNNPNSNTGKQEGFSSQNPTPNSNQSPSSSSQQRHNLVTGGFPNSPQMQQQQRTMNGPTNILPQNHPHQLQSPHSHGNTPEQQMLHQLLQEMSENGGSVQQQQAFSGQSGSNSNAERNTTASTSNISGGGRAPSRNNSFKAASNNNLHFSEDISITDHDFSEDGFFNNNDIYGGL
With B3, the binding result in test [3] and in test [4] was “binds” each time.

B4: SLK1 as C-LUC fusion (protein, UniProt Q0WVM7 1-748)
chain: MNRTVVSGAVESSFSLTDAVGTEALNMQRSSGINNNMRIPTSPMSFSSNSVNIPGSLVLDGSAASMQHLPQQQQQQLLQQQTGQGSVPMRENNYSHVDKKPRLEVKQEDMLQQQILQQLIQRQDPTGRNPQMQALLQQQRLRQHQQMLQSMSPSQRLQLQQQQQLRQQLQQQGTQQIPPNVRPYEVGVCARKLMMYLYHLQQRPAENCITYWRKFVAEYFSPRAKQRLCLSQYESAGHHALGMFPQAAPDMWQCDLCGTKSGKGFEATFDVLARLIEIKFASGIIDELLYLDHPRENRFPNGLMMLEYRKAVQETVHEQFRVVREGHLRIIFSQDLKILSWEFCARRHEELLLRRLIAPQVNQLLQVAQKCQSTISESGSEGVSQQDLQSNSNMVLGAGRQLAKFMELQSLNDLGYPKRYIRTLQISEVVKSMKDLMNFTGEQKIGPIEGLKRLLEQTVTVKLQKQKMQEMEQFGNNGAINGPVQAQMVLTSGTMNGSTGNNTNNHHQIVGRGAMSGPAEGQMVISSGTVSGATANNNSNNHNQIVGRGAMNGSAQAAAALTNYQSMLMRQNAMNNPNSNTGKQEGFSSQNPTPNSNQSPSSSSQQRHNLVTGGFPNSPQMQQQQRTMNGPTNILPQNHPHQLQSPHSHGNTPEQQMLHQLLQEMSENGGSVQQQQAFSGQSGSNSNAERNTTASTSNISGGGRAPSRNNSFKAASNNNLHFSEDISITDHDFSEDGFFNNNDIYGGL
Take B4: the binding entry in test [5] is given as “binds”.
